Laboratory results: publication PMC4618059

Sequences of proteins named here, by UniProt entry; tags and fusion partners are left off.
UniProt O00560: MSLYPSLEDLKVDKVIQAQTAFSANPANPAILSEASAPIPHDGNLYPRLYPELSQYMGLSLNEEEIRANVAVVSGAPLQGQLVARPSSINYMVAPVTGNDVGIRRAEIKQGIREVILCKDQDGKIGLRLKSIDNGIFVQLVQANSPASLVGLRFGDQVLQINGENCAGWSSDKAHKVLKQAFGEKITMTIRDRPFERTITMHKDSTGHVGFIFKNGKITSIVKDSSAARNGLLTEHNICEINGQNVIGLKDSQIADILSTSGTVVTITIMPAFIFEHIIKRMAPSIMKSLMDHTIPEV
UniProt Q15021: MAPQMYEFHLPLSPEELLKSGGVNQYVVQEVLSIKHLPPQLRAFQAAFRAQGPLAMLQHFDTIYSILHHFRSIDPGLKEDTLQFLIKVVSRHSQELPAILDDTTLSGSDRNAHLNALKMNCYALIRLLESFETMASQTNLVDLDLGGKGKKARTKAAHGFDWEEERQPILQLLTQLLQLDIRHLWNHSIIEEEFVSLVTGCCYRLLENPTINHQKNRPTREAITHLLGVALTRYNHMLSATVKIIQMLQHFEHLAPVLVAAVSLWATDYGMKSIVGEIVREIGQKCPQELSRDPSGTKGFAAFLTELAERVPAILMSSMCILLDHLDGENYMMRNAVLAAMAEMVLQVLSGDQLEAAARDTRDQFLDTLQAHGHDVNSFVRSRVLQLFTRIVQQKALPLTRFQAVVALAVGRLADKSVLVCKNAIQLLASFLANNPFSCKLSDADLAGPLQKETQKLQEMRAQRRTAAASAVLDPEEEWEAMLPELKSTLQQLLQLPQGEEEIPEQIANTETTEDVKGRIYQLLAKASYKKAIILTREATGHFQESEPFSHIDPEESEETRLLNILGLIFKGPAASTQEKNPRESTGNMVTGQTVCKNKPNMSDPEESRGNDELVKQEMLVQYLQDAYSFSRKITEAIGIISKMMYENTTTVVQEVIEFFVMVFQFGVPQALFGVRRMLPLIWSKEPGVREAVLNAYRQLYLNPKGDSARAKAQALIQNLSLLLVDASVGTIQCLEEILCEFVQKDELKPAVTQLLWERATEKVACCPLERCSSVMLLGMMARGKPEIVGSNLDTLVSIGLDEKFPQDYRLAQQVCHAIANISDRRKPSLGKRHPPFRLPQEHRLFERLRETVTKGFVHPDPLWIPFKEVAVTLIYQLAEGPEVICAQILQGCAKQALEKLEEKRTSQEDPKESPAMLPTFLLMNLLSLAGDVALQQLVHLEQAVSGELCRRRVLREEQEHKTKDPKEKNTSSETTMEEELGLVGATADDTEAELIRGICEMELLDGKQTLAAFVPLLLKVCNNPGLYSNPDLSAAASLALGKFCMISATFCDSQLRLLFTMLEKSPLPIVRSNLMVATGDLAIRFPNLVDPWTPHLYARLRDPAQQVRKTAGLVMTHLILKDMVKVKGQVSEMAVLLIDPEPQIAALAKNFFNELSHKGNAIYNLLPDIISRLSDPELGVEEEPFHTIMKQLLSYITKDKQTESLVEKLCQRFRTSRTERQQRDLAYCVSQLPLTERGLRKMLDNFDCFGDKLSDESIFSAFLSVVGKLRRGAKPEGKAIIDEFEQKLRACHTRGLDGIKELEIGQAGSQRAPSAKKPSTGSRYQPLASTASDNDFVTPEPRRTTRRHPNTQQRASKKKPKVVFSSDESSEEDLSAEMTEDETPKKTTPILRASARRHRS
UniProt Q9ULJ8: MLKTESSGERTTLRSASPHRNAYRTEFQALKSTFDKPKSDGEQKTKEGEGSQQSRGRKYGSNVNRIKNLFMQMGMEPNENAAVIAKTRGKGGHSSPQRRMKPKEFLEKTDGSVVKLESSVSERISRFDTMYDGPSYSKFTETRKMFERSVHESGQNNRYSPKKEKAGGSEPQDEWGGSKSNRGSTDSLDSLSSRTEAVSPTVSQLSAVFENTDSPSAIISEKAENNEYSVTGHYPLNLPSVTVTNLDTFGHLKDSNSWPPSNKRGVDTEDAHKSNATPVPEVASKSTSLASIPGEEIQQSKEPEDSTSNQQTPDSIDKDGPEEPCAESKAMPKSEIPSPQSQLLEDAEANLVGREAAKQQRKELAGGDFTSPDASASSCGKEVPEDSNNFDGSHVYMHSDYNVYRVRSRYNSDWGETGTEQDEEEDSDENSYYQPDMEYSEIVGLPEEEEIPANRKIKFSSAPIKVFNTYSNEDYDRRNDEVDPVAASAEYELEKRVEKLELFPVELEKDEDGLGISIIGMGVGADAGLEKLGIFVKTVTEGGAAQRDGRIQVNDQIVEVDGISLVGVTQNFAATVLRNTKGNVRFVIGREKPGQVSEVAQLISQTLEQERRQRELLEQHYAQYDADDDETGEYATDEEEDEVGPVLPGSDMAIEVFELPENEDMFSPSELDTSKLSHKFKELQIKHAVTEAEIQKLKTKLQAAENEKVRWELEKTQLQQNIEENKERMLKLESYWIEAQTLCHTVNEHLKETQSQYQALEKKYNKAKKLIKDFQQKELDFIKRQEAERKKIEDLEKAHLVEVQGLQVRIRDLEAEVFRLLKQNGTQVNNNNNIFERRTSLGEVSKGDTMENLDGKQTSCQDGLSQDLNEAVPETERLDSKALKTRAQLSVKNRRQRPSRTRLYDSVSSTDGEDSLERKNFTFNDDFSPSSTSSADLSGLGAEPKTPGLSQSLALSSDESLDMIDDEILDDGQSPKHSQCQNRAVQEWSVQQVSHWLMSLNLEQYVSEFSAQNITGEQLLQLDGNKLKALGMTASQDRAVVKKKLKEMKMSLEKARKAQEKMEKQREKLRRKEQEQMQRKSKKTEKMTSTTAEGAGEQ
UniProt P05387: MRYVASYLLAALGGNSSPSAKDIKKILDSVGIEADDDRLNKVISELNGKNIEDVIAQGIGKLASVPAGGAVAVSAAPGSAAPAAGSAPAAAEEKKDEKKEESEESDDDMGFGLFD
UniProt P46939: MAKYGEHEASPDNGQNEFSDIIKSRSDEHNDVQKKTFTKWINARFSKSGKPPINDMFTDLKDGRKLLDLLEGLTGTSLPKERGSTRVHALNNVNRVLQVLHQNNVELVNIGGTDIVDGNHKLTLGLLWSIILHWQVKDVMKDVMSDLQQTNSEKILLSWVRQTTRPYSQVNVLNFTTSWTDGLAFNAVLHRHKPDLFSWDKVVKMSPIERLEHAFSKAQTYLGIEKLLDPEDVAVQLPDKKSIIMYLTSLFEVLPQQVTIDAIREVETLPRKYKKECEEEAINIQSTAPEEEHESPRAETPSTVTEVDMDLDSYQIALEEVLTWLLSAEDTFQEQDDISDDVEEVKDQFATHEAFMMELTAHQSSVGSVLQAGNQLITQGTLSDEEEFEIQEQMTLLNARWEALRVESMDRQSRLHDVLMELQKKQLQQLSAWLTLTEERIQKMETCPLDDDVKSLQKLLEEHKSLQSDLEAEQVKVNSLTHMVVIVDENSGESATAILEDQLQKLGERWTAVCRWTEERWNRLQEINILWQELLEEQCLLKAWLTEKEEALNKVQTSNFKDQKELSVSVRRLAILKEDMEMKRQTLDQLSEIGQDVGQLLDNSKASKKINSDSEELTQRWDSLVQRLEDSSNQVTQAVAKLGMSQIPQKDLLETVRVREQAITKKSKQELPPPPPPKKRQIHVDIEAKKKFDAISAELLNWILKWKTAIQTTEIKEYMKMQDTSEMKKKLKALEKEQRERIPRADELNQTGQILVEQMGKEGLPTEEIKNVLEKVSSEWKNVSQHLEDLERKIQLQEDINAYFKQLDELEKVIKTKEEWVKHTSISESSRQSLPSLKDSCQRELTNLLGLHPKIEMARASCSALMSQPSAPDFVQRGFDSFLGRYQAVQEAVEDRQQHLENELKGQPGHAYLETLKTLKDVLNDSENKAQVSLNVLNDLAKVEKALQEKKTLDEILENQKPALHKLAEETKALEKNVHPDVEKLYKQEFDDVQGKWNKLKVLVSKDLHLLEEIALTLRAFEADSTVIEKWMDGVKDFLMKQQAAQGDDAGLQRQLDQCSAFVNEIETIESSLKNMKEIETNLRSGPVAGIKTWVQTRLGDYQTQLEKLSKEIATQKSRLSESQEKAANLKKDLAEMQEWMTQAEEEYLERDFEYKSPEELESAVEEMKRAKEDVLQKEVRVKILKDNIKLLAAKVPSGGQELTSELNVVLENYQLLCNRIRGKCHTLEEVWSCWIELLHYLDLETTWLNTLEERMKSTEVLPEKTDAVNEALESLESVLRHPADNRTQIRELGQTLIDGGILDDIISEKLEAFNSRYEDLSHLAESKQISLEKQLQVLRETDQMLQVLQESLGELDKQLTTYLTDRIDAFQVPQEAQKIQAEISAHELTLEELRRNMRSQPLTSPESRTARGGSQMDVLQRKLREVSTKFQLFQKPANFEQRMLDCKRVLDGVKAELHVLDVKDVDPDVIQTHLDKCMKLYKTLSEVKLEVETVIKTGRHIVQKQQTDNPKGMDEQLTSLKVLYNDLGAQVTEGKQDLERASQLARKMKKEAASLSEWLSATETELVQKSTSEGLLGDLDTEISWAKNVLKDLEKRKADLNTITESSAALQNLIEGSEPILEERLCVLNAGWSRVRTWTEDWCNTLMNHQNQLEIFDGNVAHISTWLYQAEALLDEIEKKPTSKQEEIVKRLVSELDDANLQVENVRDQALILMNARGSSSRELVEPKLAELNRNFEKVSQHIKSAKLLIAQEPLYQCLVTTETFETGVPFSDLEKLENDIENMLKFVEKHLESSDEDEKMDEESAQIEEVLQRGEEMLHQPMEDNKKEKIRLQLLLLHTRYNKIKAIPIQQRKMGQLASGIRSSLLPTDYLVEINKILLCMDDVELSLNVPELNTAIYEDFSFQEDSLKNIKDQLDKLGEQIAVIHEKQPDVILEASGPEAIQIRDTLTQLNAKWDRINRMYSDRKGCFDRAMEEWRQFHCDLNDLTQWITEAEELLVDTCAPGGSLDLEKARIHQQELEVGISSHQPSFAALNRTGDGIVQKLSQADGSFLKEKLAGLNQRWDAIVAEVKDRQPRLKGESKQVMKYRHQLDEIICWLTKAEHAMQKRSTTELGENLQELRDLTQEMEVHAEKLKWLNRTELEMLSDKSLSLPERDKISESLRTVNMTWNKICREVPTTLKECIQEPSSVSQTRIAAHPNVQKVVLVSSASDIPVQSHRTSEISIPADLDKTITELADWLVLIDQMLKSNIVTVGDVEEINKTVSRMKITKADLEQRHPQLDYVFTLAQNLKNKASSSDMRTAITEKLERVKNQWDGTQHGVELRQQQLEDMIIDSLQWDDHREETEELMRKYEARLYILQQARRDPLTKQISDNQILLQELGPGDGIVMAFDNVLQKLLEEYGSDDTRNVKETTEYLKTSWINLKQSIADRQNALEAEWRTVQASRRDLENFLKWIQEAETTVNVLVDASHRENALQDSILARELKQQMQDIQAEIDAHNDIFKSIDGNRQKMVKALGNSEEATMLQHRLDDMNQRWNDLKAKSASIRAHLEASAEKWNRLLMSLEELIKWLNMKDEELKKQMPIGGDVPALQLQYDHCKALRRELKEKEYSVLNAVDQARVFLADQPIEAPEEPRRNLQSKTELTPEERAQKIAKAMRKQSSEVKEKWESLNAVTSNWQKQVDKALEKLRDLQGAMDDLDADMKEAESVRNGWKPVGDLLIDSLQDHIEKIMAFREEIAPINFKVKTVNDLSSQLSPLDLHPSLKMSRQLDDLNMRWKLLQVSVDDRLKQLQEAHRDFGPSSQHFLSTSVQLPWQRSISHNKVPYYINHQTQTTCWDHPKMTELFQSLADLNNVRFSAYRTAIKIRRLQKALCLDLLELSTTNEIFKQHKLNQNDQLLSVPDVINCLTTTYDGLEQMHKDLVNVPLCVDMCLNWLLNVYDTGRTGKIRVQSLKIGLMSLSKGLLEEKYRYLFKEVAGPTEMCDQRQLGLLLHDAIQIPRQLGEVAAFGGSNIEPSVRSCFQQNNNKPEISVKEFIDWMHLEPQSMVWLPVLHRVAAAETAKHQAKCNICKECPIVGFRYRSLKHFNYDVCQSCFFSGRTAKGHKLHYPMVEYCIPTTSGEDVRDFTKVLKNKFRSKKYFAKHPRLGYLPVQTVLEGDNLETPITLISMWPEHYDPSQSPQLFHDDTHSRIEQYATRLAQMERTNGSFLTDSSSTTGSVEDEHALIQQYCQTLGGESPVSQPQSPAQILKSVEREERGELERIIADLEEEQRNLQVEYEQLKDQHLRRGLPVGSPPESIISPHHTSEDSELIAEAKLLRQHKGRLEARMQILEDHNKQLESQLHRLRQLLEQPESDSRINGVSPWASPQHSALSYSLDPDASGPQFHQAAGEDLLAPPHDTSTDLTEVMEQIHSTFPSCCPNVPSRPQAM

T1: MAS C-terminal tail (Ct) peptide, residues 301 to 325 of human MAS receptor, N-terminal biotin, C316S (human)
T1 sequence (peptide, biotin on the N-terminus): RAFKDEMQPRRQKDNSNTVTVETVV

B1: PDZD8 (protein, UniProt Q8NEN9 1-1154)
chain: MGLLLMILASAVLGSFLTLLAQFFLLYRRQPEPPADEAARAGEGFRYIKPVPGLLLREYLYGGGRDEEPSGAAPEGGATPTAAPETPAPPTRETCYFLNATILFLFRELRDTALTRRWVTKKIKVEFEELLQTKTAGRLLEGLSLRDVFLGETVPFIKTIRLVRPVVPSATGEPDGPEGEALPAACPEELAFEAEVEYNGGFHLAIDVDLVFGKSAYLFVKLSRVVGRLRLVFTRVPFTHWFFSFVEDPLIDFEVRSQFEGRPMPQLTSIIVNQLKKIIKRKHTLPNYKIRFKPFFPYQTLQGFEEDEEHIHIQQWALTEGRLKVTLLECSRLLIFGSYDREANVHCTLELSSSVWEEKQRSSIKTVELIKGNLQSVGLTLRLVQSTDGYAGHVIIETVAPNSPAAIADLQRGDRLIAIGGVKITSTLQVLKLIKQAGDRVLVYYERPVGQSNQGAVLQDNFGQLEENFLSSSCQSGYEEEAAGLTVDTESRELDSEFEDLASDVRAQNEFKDEAQSLSHSPKRVPTTLSIKPLGAISPVLNRKLAVGSHPLPPKIQSKDGNKPPPLKTSEITDPAQVSKPTQGSAFKPPVPPRPQAKVPLPSADAPNQAEPDVLVEKPEKVVPPPLVDKSAEKQAKNVDAIDDAAAPKQFLAKQEVAKDVTSETSCPTKDSSDDRQTWESSEILYRNKLGKWTRTRASCLFDIEACHRYLNIALWCRDPFKLGGLICLGHVSLKLEDVALGCLATSNTEYLSKLRLEAPSPKAIVTRTALRNLSMQKGFNDKFCYGDITIHFKYLKEGESDHHVVTNVEKEKEPHLVEEVSVLPKEEQFVGQMGLTENKHSFQDTQFQNPTWCDYCKKKVWTKAASQCMFCAYVCHKKCQEKCLAETSVCGATDRRIDRTLKNLRLEGQETLLGLPPRVDAEASKSVNKTTGLTRHIINTSSRLLNLRQVSKTRLSEPGTDLVEPSPKHTPNTSDNEGSDTEVCGPNSPSKRGNSTGIKLVRKEGGLDDSVFIAVKEIGRDLYRGLPTEERIQKLEFMLDKLQNEIDQELEHNNSLVREEKETTDTRKKSLLSAALAKSGERLQALTLLMIHYRAGIEDIETLESLSLDQHSKKISKYTDDTEEDLDNEISQLIDSQPFSSISDDLFGPSESV
B2: DTNA (human) (protein, UniProt Q9Y4J8 1-743)
chain: MIEDSGKRGNTMAERRQLFAEMRAQDLDRIRLSTYRTACKLRFVQKKCNLHLVDIWNVIEALRENALNNLDPNTELNVSRLEAVLSTIFYQLNKRMPTTHQIHVEQSISLLLNFLLAAFDPEGHGKISVFAVKMALATLCGGKIMDKLRYIFSMISDSSGVMVYGRYDQFLREVLKLPTAVFEGPSFGYTEQSARSCFSQQKKVTLNGFLDTLMSDPPPQCLVWLPLLHRLANVENVFHPVECSYCHSESMMGFRYRCQQCHNYQLCQDCFWRGHAGGSHSNQHQMKEYTSWKSPAKKLTNALSKSLSCASSREPLHPMFPDQPEKPLNLAHIVDTWPPRPVTSMNDTLFSHSVPSSGSPFITRSSPPKDSEVEQNKLLARAAPAFLKGKGIQYSLNVADRLADEHVLIGLYVNMLRNNPSCMLESSNRLDEEHRLIARYAARLAAESSSSQPPQQRSAPDISFTIDANKQQRQLIAELENKNREILQEIQRLRLEHEQASQPTPEKAQQNPTLLAELRLLRQRKDELEQRMSALQESRRELMVQLEGLMKLLKTQGAGSPRSSPSHTISRPIPMPIRSASACSTPTHTPQDSLTGVGGDVQEAFAQSSRRNLRNDLLVAADSITNTMSSLVKELNSEVGSETESNVDSEFARTQFEDLVPSPTSEKAFLAQIHARKPGYIHSGATTSTMRGDMVTEDADPYVQPEDENYENDSVRQLENELQMEEYLKQKLQDEAYQVSLQG
B3: DTNB (human) (protein, UniProt O60941 1-627)
chain: MIEESGNKRKTMAEKRQLFIEMRAQNFDVIRLSTYRTACKLRFVQKRCNLHLVDIWNMIEAFRDNGLNTLDHTTEISVSRLETVISSIYYQLNKRLPSTHQISVEQSISLLLNFMIAAYDSEGRGKLTVFSVKAMLATMCGGKMLDKLRYVFSQMSDSNGLMIFSKFDQFLKEVLKLPTAVFEGPSFGYTEHSVRTCFPQQRKIMLNMFLDTMMADPPPQCLVWLPLMHRLAHVENVFHPVECSYCRCESMMGFRYRCQQCHNYQLCQNCFWRGHAGGPHSNQHQMKEHSSWKSPAKKLSHAISKSLGCVPTREPPHPVFPEQPEKPLDLAHIVPPRPLTNMNDTMVSHMSSGVPTPTKRLQYSQDIPSHLADEHALIASYVARLQHCARVLDSPSRLDEEHRLIARYAARLAAEAGNVTRPPTDLSFNFDANKQQRQLIAELENKNREILQEIQRLRLEHEQASQPTPEKAQQNPTLLAELRLLRQRKDELEQRMSALQESRRELMVQLEELMKLLKEEEQKQAAQATGSPHTSPTHGGGRPMPMPVRSTSAGSTPTHCPQDSLSGVGGDVQEAFAQGTRRNLRNDLLVAADSITNTMSSLVKELHSAEEGAEEEEEKMQNGKDRG
B4: CPVL (protein, UniProt Q9H3G5 23-476)
chain: LFRSLYRSVSMPPKGDSGQPLFLTPYIEAGKIQKGRELSLVGPFPGLNMKSYAGFLTVNKTYNSNLFFWFFPAQIQPEDAPVVLWLQGGPGGSSMFGLFVEHGPYVVTSNMTLRDRDFPWTTTLSMLYIDNPVGTGFSFTDDTHGYAVNEDDVARDLYSALIQFFQIFPEYKNNDFYVTGESYAGKYVPAIAHLIHSLNPVREVKINLNGIAIGDGYSDPESIIGGYAEFLYQIGLLDEKQKKYFQKQCHECIEHIRKQNWFEAFEILDKLLDGDLTSDPSYFQNVTGCSNYYNFLRCTEPEDQLYYVKFLSLPEVRQAIHVGNQTFNDGTIVEKYLREDTVQSVKPWLTEIMNNYKVLIYNGQLDIIVAAALTERSLMGMDWKGSQEYKKAEKKVWKIFKSDSEVAGYIRQAGDFHQVIIRGGGHILPYDQPLRAFDMINRFIYGKGWDPYVG
B5: SNTB1 (human) (protein, UniProt Q13884 1-538)
chain: MAVAAAAAAAGPAGAGGGRAQRSGLLEVLVRDRWHKVLVNLSEDALVLSSEEGAAAYNGIGTATNGSFCRGAGAGHPGAGGAQPPDSPAGVRTAFTDLPEQVPESISNQKRGVKVLKQELGGLGISIKGGKENKMPILISKIFKGLAADQTQALYVGDAILSVNGADLRDATHDEAVQALKRAGKEVLLEVKYMREATPYVKKGSPVSEIGWETPPPESPRLGGSTSDPPSSQSFSFHRDRKSIPLKMCYVTRSMALADPENRQLEIHSPDAKHTVILRSKDSATAQAWFSAIHSNVNDLLTRVIAEVREQLGKTGIAGSREIRHLGWLAEKVPGESKKQWKPALVVLTEKDLLIYDSMPRRKEAWFSPVHTYPLLATRLVHSGPGKGSPQAGVDLSFATRTGTRQGIETHLFRAETSRDLSHWTRSIVQGCHNSAELIAEISTACTYKNQECRLTIHYENGFSITTEPQEGAFPKTIIQSPYEKLKMSSDDGIRMLYLDFGGKDGEIQLDLHSCPKPIVFIIHSFLSAKITRLGLVA
B6: CTNL1 (protein, UniProt Q9UBT7 1-734)
chain: MAASPGPAGVGGAGAVYGSGSSGFALDSGLEIKTRSVEQTLLPLVSQITTLINHKDNTKKSDKTLQAIQRVGQAVNLAVGRFVKVGEAIANENWDLKEEINIACIEAKQAGETIAALTDITNLNHLESDGQITIFTDKTGVIKAARLLLSSVTKVLLLADRVVIKQIITSRNKVLATMERLEKVNSFQEFVQIFSQFGNEMVEFAHLSGDRQNDLKDEKKKAKMAAARAVLEKCTMMLLTASKTCLRHPNCESAHKNKEGVFDRMKVALDKVIEIVTDCKPNGETDISSISIFTGIKEFKMNIEALRENLYFQSKENLSVTLEVILERMEDFTDSAYTSHEHRERILELSTQARMELQQLISVWIQAQSKKTKSIAEELELSILKISHSLNELKKELHSTATQLAADLLKYHADHVVLKALKLTGVEGNLEALAEYACKLSEQKEQLVETCRLLRHISGTEPLEITCIHAEETFQVTGQQIISAAETLTLHPSSKIAKENLDVFCEAWESQISDMSTLLREINDVFEGRRGEKYGYLSLPKPMKNNANLKSLKPDKPDSEEQAKIAKLGLKLGLLTSDADCEIEKWEDQENEIVQYGRNMSSMAYSLYLFTRGEGPLKTSQDLIHQLEVFAAEGLKLTSSVQAFSKQLKDDDKLMLLLEINKLIPLCHQLQTVTKTSLQNKVFLKVDKCITKTRSMMALLVQLLSLCYKLLKKLQMENNGWVSVTNKDTMDSKT
B7: MPP7 (protein, UniProt Q5T2T1 1-576)
chain: MPALSTGSGSDTGLYELLAALPAQLQPHVDSQEDLTFLWDMFGEKSLHSLVKIHEKLHYYEKQSPVPILHGAAALADDLAEELQNKPLNSEIRELLKLLSKPNVKALLSVHDTVAQKNYDPVLPPMPEDIDDEEDSVKIIRLVKNREPLGATIKKDEQTGAIIVARIMRGGAADRSGLIHVGDELREVNGIPVEDKRPEEIIQILAQSQGAITFKIIPGSKEETPSKEGKMFIKALFDYNPNEDKAIPCKEAGLSFKKGDILQIMSQDDATWWQAKHEADANPRAGLIPSKHFQERRLALRRPEILVQPLKVSNRKSSGFRKSFRLSRKDKKTNKSMYECKKSDQYDTADVPTYEEVTPYRRQTNEKYRLVVLVGPVGVGLNELKRKLLISDTQHYGVTVPHTTRARRSQESDGVEYIFISKHLFETDVQNNKFIEYGEYKNNYYGTSIDSVRSVLAKNKVCLLDVQPHTVKHLRTLEFKPYVIFIKPPSIERLRETRKNAKIISSRDDQGAAKPFTEEDFQEMIKSAQIMESQYGHLFDKIIINDDLTVAFNELKTTFDKLETETHWVPVSWLHS

Each molecule was assayed against T1, MAS C-terminal tail (Ct) peptide, residues 301 to 325 of human MAS receptor, N-terminal biotin, C316S (human) (assay: affinity purification with mass spectrometry; as a1 and a2; the lysate in which this PDZ hit was found (HEK293, HL-1 or both) is told only in Fig 2B; only the target purified).

binding	Molecule
binds	HTRA1 (from UniProt Q92743 23-480)
binds	INADL (from UniProt Q8NI35 1-1801)
binds	MPP5 (from UniProt Q8N3R9 1-675)
binds	PTN13 (from UniProt Q12923 1-2485)
binds	SCRIB (from UniProt Q14160 1-1655)
binds	SDCB1 (from UniProt O00560 1-298)

These molecules were tested against T1, MAS C-terminal tail (Ct) peptide, residues 301 to 325 of human MAS receptor, N-terminal biotin, C316S (human) (assay: affinity purification with mass spectrometry; biotinylated MAS Ct peptide immobilised on NeutrAvidin agarose resin; HEK293 cell lysate (~4 mg), overnight at 4°C; washes with D-PBS; elution with 2% SDS; LC-MS of whole gel lanes; resin alone as control; only the target purified).

binding	Molecule
binds	CND1 (from UniProt Q15021 1-1401)
binds	DDX21 (from UniProt Q9NR30 1-783)
binds	DMD (human) (from UniProt P11532 1-3685)
no binding	NEB1 (from UniProt Q9ULJ8 1-1098)
no binding	NEB2 (from UniProt Q96SB3 1-817)
binds	RLA2 (from UniProt P05387 1-115)
binds	SNTB2 (human) (from UniProt Q13425 1-540)
binds	TJP1 (from UniProt Q07157 1-1748)
binds	TJP2 (from UniProt Q9UDY2 1-1190)
binds	UTRO (human) (from UniProt P46939 1-3433)
no binding	B1
binds	B2
binds	B3
binds	B4
binds	B5
binds	B6
binds	B7

No constants are given. Whether binding was seen depends on the method and setting. In cells and extracts the contact can be indirect. A yes stands for co-enrichment or nearness to the bait. Other partners may have been found. For some assays here: A no says only that the protein was not detected with the bait.
